For 1 substance, binding results are on record in PMC13319145.

Chains of the proteins cited; added tags and fusions are not shown. Residues count along the entry.
UniProt P13686, residues 22-325: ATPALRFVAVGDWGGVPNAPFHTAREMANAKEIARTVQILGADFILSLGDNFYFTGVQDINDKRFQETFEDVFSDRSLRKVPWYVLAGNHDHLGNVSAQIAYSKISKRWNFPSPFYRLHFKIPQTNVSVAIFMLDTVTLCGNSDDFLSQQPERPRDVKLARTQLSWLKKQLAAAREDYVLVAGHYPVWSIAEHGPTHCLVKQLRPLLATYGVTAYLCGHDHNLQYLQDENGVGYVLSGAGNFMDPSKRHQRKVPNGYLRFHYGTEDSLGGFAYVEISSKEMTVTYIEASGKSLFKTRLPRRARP

This assay concerns the target wild-type purple acid phosphatase (human) (UniProt P13686). Description: mass photometry; 20 ul of 5 nM protein samples added to 4 ul buffer; glycosylated proteins stored in 0.1 M acetate buffer; landing assays, 60 s at 331 Hz; both purified.

No constants are given. Whether binding was seen depends on the method and setting.

For the substance “wild-type purple acid phosphatase (from UniProt P13686 22-325) (enzyme)”, the binding entry is given as “no binding (tested: 5 nM protein samples)”.
